# Assay results reported in PMC3871820.
# Sequences of proteins named here, by UniProt entry; tags and fusion partners are left off.
# UniProt Q9SJK7: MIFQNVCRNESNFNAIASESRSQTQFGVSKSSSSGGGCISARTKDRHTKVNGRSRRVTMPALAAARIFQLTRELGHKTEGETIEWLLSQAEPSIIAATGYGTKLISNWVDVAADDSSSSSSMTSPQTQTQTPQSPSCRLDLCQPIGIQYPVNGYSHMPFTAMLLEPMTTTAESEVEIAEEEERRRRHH
# These are yes or no findings as the source states them, for the method shown.
# T1: TCP13 (Arabidopsis thaliana) (UniProt Q9S7W5)
# T1 sequence: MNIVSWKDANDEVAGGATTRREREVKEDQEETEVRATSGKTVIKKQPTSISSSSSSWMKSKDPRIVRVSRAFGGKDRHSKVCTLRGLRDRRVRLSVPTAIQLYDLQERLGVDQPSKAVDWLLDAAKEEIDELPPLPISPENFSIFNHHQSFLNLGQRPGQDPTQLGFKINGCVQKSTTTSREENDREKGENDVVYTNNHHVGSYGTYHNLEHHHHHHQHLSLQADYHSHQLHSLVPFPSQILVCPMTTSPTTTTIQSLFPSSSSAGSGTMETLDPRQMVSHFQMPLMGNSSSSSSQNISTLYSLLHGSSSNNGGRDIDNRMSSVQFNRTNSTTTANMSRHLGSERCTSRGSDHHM
# T2: TCP16 (Arabidopsis thaliana) (UniProt Q9M1U4)
# T2 sequence: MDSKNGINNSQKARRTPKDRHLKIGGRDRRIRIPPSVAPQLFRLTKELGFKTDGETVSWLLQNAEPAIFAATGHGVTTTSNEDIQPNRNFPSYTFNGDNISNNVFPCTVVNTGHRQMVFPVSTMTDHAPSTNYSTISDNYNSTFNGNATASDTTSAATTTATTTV
# T3: TCP17 (Arabidopsis thaliana) (UniProt Q9LEZ9)
# T3 sequence: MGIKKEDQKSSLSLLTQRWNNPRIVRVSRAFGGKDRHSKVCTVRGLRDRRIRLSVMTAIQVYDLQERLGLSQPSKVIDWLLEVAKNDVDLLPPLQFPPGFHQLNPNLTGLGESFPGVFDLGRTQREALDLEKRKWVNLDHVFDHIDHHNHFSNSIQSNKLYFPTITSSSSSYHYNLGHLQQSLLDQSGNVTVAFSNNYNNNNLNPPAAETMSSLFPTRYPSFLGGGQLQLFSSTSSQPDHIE
# T4: TCP3 (Arabidopsis thaliana) (UniProt Q9MAH8)
# T4 sequence: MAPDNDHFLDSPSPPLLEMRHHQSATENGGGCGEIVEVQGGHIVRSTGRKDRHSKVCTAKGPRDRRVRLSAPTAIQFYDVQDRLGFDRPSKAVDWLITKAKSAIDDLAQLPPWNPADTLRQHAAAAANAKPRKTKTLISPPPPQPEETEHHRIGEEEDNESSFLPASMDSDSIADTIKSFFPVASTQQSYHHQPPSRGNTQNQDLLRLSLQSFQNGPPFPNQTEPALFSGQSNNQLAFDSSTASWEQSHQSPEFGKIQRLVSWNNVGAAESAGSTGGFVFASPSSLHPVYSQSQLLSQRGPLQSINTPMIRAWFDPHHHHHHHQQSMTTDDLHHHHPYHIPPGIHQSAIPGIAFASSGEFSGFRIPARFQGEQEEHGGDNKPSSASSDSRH
# T5: TCP6 (Arabidopsis thaliana) (UniProt Q9FLM6)
# T5 sequence: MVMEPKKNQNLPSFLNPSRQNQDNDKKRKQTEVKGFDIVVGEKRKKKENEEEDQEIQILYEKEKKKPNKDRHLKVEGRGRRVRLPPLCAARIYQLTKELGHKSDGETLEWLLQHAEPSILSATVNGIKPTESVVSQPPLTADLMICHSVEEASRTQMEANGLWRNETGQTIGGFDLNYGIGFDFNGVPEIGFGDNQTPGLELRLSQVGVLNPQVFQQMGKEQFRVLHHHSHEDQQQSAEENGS
# B1: TCP12 (protein, UniProt A0AQW4 1-356)
# chain: MFPSLDTNGYDLFDPFIPHQTTMFPSFITHIQSPNSHHHYSSPSFPFSSDFLESFDESFLINQFLLQQQDVAANVVESPWKFCKKLELKKKNEKCVDGSTSQEVQWRRTVKKRDRHSKICTAQGPRDRRMRLSLQIARKFFDLQDMLGFDKASKTIEWLFSKSKTSIKQLKERVAASEGGGKDEHLQVDEKEKDETLKLRVSKRRTKTMESSFKTKESRERARKRARERTMAKMKMRLFETSETISDPHQETREIKITNGVQLLEKENKEQEWSNTNDVHMVEYQMDSVSIIEKFLGLTSDSSSSSIFGDSEECYTSLSSVRGMSTPREHNTTSIATVDEEKSPISSFSLYDYLCY
# B2: TCP18 (protein, UniProt A1YKT1 1-433)
# chain: MNNNIFSTTTTINDDYMLFPYNDHYSSQPLLPFSPSSSINDILIHSTSNTSNNHLDHHHQFQQPSPFSHFEFAPDCALLTSFHPENNGHDDNQTIPNDNHHPSLHFPLNNTIVEQPTEPSETINLIEDSQRISTSQDPKMKKAKKPSRTDRHSKIKTAKGTRDRRMRLSLDVAKELFGLQDMLGFDKASKTVEWLLTQAKPEIIKIATTLSHHGCFSSGDESHIRPVLGSMDTSSDLCELASMWTVDDRGSNTNTTETRGNKVDGRSMRGKRKRPEPRTPILKKLSKEERAKARERAKGRTMEKMMMKMKGRSQLVKVVEEDAHDHGEIIKNNNRSQVNRSSFEMTHCEDKIEELCKNDRFAVCNEFIMNKKDHISNESYDLVNYKPNSSFPVINHHRSQGAANSIEQHQFTDLHYSFGAKPRDLMHNYQNMY
# B3: TCP1 (protein, UniProt Q9FYG7 1-359)
# chain: MSSSTNDYNDGNNNGVYPLSLYLSSLSGHQDIIHNPYNHQLKASPGHMVSAVPESLIDYMAFKSNNVVNQQGFEFPEVSKEIKKVVKKDRHSKIQTAQGIRDRRVRLSIGIARQFFDLQDMLGFDKASKTLDWLLKKSRKAIKEVVQAKNLNNDDEDFGNIGGDVEQEEEKEEDDNGDKSFVYGLSPGYGEEEVVCEATKAGIRKKKSELRNISSKGLGAKARGKAKERTKEMMAYDNPETASDITQSEIMDPFKRSIVFNEGEDMTHLFYKEPIEEFDNQESILTNMTLPTKMGQSYNQNNGILMLVDQSSSSNYNTFLPQNLDYSYDQNPFHDQTLYVVTDKNFPKGKVWIQDSFVN
# Target: TCP11 (Arabidopsis thaliana) (UniProt Q9SJK7)
# Experiment: two-hybrid; matrix-based GAL4 yeast two-hybrid by mating (baits in PJ69-4alpha, preys in PJ69-4a); selection on SD-Leu-Trp-Ade or SD-Leu-Trp-His with 5 and 10 mM 3-amino-1,2,4-triazole; scored after 5 days at 30 °C; BD baits of TCP1, 2, 4, 10, 12, 18, 20 and 24 excluded for auto-activation; positive only if reproducible with at least two selection markers
row,binding,Binder
1,no binding,B1
2,no binding,B2
3,no binding,B3

# Target: T1, TCP13 (Arabidopsis thaliana)
# Experiment: as above
row,binding,Binder
1,no binding,B1
2,no binding,B2
3,no binding,B3

# Target: TCP15 (Arabidopsis thaliana) (UniProt Q9C9L2)
# Experiment: as above
row,binding,Binder
1,no binding,B1
2,no binding,B2
3,no binding,B3

# Target: T2, TCP16 (Arabidopsis thaliana)
# Experiment: as above
row,binding,Binder
1,no binding,B1
2,no binding,B2
3,no binding,B3

# Target: T3, TCP17 (Arabidopsis thaliana)
# Experiment: as above
row,binding,Binder
1,no binding,B1
2,no binding,B2
3,no binding,B3

# Target: T4, TCP3 (Arabidopsis thaliana)
# Experiment: as above
row,binding,Binder
1,no binding,B1
2,no binding,B2
3,no binding,B3

# Target: T5, TCP6 (Arabidopsis thaliana)
# Experiment: as above
row,binding,Binder
1,no binding,B1
2,no binding,B2
3,no binding,B3
